Source: PubChem BioAssay AID1224830 (NIAID, 2016)
The deposit covers about 18,000 reagents; below is an unselected part. In the full data, about 2,900 (16%) got an active call. 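Calls are made per well; low scores hint the gene aids the LPS response, high scores that it dampens it.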 A number with no mark means an inactive call. Repeated entries: four replicate wells of each siRNA pool.

Test: 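Host factors that control LPS-induced TNF expression in human macrophages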 (primary screen)
Cell system: human THP-1 monocytic leukaemia cells, TNF dual-luciferase reporter clone, PMA-differentiated to macrophage-like cells
Reagents: siRNA pool against human genes, 50 nM
Time to read-out: LPS for 4 h, given about 3 days after siRNA transfection
Treatment: bacterial LPS (TLR4 ligand), 10 ng/ml
Read-out: 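Ratio of firefly to renilla light, scaled to the plate median and expressed as a robust z-score per replicate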
Direction: TNF reporter robust z-score: higher = stronger TNF reporter response to LPS
Call rule: 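Each well counts as active if its z-score is over 2.8 or under -1.5; controls are left without a call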

| target | PubChem SID | TNF reporter robust z-score |
| --- | --- | --- |
| CHCHD6 (coiled-coil-helix-coiled-coil-helix domain containing 6) | SID315460313 | 0.76 |
| CHCHD6 (coiled-coil-helix-coiled-coil-helix domain containing 6) | SID315460313 | 1.88 |
| CHCHD6 (coiled-coil-helix-coiled-coil-helix domain containing 6) | SID315460313 | 0.23 |
| CHCHD6 (coiled-coil-helix-coiled-coil-helix domain containing 6) | SID315460313 | 0.4 |
| FNIP1 (folliculin interacting protein 1) | SID315461133 | 0.68 |
| FNIP1 (folliculin interacting protein 1) | SID315461133 | 1.14 |
| FNIP1 (folliculin interacting protein 1) | SID315461133 | -0.15 |
| FNIP1 (folliculin interacting protein 1) | SID315461133 | 0.65 |
| ARHGEF17 (Rho guanine nucleotide exchange factor 17) | SID315453600 | 0.52 |
| ARHGEF17 (Rho guanine nucleotide exchange factor 17) | SID315453600 | 0.17 |
| ARHGEF17 (Rho guanine nucleotide exchange factor 17) | SID315453600 | 0.97 |
| ARHGEF17 (Rho guanine nucleotide exchange factor 17) | SID315453600 | 1.05 |
| LGALS9B (galectin 9B) | SID315463747 | 1.71 |
| LGALS9B (galectin 9B) | SID315463747 | 1.15 |
| LGALS9B (galectin 9B) | SID315463747 | 1.82 |
| LGALS9B (galectin 9B) | SID315463747 | 1.08 |
| H2BC17 (H2B clustered histone 17) | SID315452499 | -0.87 |
| H2BC17 (H2B clustered histone 17) | SID315452499 | -1.06 |
| H2BC17 (H2B clustered histone 17) | SID315452499 | -1.39 |
| H2BC17 (H2B clustered histone 17) | SID315452499 | -1.08 |

The list goes on, starting with the last 3 of the part before.
| target | PubChem SID | TNF reporter robust z-score |
| --- | --- | --- |
| H2BC17 (H2B clustered histone 17) | SID315452499 | -1.06 |
| H2BC17 (H2B clustered histone 17) | SID315452499 | -1.39 |
| H2BC17 (H2B clustered histone 17) | SID315452499 | -1.08 |
| ERN1 (endoplasmic reticulum to nucleus signaling 1) | SID315448561 | -0.1 |
| ERN1 (endoplasmic reticulum to nucleus signaling 1) | SID315448561 | 0.94 |
| ERN1 (endoplasmic reticulum to nucleus signaling 1) | SID315448561 | -0.09 |
| ERN1 (endoplasmic reticulum to nucleus signaling 1) | SID315448561 | 1.28 |
| ARNT (aryl hydrocarbon receptor nuclear translocator) | SID315447408 | -1.21 |
| ARNT (aryl hydrocarbon receptor nuclear translocator) | SID315447408 | -1.12 |
| ARNT (aryl hydrocarbon receptor nuclear translocator) | SID315447408 | -1.28 |
| ARNT (aryl hydrocarbon receptor nuclear translocator) | SID315447408 | 0 |
| SAT2 (spermidine/spermine N1-acetyltransferase family member 2) | SID315461143 | 0.06 |
| SAT2 (spermidine/spermine N1-acetyltransferase family member 2) | SID315461143 | -0.48 |
| SAT2 (spermidine/spermine N1-acetyltransferase family member 2) | SID315461143 | -1.37 |
| SAT2 (spermidine/spermine N1-acetyltransferase family member 2) | SID315461143 | -0.22 |
| SRSF6 (serine and arginine rich splicing factor 6) | SID315451389 | 0.39 |
| SRSF6 (serine and arginine rich splicing factor 6) | SID315451389 | -0.1 |
| SRSF6 (serine and arginine rich splicing factor 6) | SID315451389 | 0.1 |
| SRSF6 (serine and arginine rich splicing factor 6) | SID315451389 | 0.68 |
| MED1 (mediator complex subunit 1) | SID315450723 | 0.01 |
| MED1 (mediator complex subunit 1) | SID315450723 | -0.85 |
| MED1 (mediator complex subunit 1) | SID315450723 | -0.96 |
| MED1 (mediator complex subunit 1) | SID315450723 | -0.11 |
| CFP (complement factor properdin) | SID315450524 | 3.16 (active) |
| CFP (complement factor properdin) | SID315450524 | 0.59 |
| CFP (complement factor properdin) | SID315450524 | 1.77 |
| CFP (complement factor properdin) | SID315450524 | 2.63 |
| BLTP3B (bridge-like lipid transfer protein family member 3B) | SID315454970 | 1.43 |
| BLTP3B (bridge-like lipid transfer protein family member 3B) | SID315454970 | -0.24 |
| BLTP3B (bridge-like lipid transfer protein family member 3B) | SID315454970 | -0.46 |
| BLTP3B (bridge-like lipid transfer protein family member 3B) | SID315454970 | -0.7 |
